# Assay results from the supplement of paper PMC10032668.
# By UniProt entry, the sequences of proteins in these tests, tags left out.
# APLP2, Q06481, UniProt Q06481, whole entry: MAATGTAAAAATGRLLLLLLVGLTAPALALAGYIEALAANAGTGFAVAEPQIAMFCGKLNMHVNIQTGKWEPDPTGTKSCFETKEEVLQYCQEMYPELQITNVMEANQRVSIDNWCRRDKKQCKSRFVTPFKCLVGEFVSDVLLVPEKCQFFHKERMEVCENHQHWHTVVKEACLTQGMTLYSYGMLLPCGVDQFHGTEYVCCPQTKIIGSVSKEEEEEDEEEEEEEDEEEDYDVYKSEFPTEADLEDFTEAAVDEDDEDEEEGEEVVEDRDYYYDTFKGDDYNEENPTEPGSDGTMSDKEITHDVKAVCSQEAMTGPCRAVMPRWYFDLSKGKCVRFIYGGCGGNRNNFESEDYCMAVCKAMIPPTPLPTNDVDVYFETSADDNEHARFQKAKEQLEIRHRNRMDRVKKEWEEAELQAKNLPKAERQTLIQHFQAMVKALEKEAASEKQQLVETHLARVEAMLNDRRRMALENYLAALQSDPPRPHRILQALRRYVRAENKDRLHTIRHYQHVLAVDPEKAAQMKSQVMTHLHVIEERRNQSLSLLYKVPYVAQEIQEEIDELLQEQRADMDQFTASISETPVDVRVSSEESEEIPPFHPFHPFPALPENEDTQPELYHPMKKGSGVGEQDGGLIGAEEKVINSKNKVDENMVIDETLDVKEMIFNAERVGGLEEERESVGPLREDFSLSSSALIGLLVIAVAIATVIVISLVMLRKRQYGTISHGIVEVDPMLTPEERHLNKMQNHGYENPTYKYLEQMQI
# EIF3B, P55884, UniProt P55884, whole entry: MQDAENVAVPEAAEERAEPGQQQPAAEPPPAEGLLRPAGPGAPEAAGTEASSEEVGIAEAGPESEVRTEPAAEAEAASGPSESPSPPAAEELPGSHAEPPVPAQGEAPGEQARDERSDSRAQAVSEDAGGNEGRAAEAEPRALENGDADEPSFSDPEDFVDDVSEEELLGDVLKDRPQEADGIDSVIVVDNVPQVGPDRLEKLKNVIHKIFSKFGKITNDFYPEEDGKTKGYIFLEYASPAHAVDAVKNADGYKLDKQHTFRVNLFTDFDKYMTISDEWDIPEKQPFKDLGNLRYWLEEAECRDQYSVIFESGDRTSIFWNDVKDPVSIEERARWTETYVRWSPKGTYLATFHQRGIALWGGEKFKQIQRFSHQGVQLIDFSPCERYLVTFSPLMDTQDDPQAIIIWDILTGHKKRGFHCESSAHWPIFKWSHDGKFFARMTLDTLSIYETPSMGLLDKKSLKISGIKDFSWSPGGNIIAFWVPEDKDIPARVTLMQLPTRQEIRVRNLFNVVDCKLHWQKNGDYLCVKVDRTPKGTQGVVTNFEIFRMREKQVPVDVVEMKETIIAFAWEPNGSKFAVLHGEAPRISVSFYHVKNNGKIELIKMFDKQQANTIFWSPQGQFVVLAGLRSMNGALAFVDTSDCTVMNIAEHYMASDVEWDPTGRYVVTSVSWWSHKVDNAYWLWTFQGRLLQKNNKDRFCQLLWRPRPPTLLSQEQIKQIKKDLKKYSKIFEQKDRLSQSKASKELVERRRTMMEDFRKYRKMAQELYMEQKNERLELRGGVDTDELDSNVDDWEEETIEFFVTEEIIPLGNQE
# HIST1H1E, P10412, UniProt P10412, whole entry: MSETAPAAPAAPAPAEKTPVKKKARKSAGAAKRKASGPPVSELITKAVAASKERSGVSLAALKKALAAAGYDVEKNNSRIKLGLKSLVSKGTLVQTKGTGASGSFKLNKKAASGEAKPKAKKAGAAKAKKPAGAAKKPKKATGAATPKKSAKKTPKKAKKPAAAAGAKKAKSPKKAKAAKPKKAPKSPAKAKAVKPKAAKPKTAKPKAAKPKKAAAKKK
# HTT, P42858, UniProt P42858, whole entry: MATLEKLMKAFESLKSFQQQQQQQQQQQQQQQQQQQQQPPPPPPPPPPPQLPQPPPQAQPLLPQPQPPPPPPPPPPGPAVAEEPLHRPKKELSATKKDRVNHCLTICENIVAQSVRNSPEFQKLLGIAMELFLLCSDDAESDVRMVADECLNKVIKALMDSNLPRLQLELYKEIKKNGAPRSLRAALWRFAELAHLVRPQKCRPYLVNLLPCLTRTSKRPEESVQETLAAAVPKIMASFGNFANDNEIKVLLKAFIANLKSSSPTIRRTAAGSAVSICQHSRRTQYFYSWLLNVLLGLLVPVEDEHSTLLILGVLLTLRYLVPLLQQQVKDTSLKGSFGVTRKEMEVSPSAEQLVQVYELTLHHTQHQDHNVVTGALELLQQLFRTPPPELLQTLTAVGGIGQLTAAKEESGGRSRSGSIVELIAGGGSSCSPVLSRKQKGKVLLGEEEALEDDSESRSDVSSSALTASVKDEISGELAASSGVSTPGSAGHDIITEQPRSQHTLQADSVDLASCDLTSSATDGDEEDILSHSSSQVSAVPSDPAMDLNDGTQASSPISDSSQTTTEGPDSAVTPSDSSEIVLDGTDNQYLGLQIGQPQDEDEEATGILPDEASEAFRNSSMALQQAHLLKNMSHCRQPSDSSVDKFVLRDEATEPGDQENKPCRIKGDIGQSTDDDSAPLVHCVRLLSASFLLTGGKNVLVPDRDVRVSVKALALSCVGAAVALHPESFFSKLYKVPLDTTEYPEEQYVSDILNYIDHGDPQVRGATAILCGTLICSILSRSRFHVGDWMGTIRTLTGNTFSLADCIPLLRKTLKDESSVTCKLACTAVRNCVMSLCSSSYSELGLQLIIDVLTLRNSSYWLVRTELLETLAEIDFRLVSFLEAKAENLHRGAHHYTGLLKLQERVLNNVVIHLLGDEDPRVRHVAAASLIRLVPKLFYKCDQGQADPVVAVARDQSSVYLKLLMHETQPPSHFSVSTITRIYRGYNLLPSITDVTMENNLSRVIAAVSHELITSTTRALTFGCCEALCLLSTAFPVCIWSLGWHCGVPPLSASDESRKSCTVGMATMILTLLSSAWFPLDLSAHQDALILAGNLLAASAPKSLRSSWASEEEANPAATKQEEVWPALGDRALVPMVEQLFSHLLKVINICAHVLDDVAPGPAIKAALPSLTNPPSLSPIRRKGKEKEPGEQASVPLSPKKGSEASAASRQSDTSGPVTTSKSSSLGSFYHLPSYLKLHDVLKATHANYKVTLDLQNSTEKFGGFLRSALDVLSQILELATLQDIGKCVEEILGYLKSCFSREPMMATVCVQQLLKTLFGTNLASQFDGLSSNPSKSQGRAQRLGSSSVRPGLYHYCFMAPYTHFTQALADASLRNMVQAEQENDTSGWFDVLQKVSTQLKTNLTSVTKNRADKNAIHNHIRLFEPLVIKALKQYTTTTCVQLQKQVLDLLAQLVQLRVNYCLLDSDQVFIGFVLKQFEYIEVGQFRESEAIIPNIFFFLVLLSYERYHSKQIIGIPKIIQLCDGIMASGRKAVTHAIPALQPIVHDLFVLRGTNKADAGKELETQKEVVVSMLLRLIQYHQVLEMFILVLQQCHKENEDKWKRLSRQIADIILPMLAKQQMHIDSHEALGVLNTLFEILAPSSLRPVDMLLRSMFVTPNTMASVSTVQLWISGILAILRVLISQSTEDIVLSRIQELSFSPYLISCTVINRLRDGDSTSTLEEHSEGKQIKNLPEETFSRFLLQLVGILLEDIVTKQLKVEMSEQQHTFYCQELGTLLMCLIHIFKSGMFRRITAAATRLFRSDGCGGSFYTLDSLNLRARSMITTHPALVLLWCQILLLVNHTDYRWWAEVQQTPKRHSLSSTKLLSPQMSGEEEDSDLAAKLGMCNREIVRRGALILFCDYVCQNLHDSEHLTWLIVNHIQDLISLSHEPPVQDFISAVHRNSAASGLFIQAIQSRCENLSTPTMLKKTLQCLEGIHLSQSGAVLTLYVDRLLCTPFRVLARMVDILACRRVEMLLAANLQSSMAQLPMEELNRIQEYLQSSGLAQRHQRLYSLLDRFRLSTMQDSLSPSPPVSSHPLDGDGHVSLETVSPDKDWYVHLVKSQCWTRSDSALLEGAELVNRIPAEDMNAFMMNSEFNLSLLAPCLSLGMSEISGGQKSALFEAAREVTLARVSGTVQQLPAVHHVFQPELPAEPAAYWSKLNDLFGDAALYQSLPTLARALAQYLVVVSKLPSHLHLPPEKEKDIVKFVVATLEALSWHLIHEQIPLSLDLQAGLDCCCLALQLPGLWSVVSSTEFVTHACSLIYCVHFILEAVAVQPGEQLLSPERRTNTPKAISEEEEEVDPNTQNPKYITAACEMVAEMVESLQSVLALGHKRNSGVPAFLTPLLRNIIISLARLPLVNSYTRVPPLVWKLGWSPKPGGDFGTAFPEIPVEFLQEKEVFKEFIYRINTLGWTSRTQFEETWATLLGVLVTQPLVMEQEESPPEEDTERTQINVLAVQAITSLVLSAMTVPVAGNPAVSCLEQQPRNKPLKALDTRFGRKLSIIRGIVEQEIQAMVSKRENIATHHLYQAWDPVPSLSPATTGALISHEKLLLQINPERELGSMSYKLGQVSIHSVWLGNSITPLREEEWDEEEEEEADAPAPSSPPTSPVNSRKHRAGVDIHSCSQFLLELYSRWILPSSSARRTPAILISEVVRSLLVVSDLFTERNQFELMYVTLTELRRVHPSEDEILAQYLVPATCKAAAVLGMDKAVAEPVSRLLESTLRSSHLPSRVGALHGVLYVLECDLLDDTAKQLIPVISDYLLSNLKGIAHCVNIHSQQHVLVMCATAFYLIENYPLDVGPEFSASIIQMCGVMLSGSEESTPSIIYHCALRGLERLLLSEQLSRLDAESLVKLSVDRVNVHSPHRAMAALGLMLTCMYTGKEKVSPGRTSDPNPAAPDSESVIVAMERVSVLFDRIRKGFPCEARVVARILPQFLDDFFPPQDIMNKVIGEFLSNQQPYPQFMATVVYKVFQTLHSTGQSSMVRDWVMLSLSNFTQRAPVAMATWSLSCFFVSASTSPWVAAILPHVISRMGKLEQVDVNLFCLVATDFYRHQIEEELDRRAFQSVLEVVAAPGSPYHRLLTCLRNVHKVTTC
# NDUFS8, O00217, UniProt O00217, whole entry: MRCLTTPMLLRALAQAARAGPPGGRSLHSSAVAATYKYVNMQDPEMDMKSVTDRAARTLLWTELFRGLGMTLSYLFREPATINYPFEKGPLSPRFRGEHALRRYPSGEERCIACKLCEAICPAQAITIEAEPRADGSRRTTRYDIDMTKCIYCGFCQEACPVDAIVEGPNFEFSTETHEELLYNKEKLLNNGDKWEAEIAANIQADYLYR
# SEC61B, P60468, UniProt P60468, whole entry: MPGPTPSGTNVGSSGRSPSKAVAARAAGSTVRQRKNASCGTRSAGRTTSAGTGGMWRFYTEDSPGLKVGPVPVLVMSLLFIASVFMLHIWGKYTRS
# SMARCA5, O60264, UniProt O60264, whole entry: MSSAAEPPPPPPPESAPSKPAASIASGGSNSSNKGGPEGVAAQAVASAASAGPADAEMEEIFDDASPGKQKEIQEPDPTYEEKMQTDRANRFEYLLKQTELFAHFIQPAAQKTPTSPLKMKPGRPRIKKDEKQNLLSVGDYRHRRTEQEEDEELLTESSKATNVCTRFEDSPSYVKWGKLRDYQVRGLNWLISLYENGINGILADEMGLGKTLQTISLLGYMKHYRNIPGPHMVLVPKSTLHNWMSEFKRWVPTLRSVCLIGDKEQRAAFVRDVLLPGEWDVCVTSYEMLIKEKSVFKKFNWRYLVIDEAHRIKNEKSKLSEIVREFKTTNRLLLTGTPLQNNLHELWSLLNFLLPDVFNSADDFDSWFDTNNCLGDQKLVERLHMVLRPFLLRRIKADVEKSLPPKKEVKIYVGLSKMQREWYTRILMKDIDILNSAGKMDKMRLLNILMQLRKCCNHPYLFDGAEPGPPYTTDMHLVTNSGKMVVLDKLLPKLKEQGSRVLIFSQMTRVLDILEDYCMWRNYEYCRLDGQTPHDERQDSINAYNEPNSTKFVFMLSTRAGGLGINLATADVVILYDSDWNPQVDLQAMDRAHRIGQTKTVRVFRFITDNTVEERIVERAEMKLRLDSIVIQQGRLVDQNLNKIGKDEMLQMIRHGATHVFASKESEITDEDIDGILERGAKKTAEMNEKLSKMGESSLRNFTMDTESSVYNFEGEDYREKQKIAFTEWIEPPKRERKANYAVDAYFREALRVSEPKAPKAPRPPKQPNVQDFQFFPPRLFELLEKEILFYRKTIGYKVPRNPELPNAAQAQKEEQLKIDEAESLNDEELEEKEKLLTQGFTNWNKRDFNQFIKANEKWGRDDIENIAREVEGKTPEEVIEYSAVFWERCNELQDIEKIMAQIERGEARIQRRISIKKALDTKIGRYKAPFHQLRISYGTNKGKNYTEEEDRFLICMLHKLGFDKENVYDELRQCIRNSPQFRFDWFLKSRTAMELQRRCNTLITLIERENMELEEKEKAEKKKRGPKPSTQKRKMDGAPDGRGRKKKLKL
# This is one part of the list. Only hits are listed; about a third recur on repeated control peptides.
# Tests used:
# Assay in all cases: PRISMA enrichment of interactor (LFQ) in peptide spot vs all other peptide spots (log2 fold change); higher = stronger / more specific binding of the interactor to the peptide
# APLP2, Q06481 = target: APLP2, Q06481
# Protocol: (§1)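 PRISMA: 15-aa overlapping tiles (offset 8 aa) of 60 microproteins, plus SOS1/GLUT1 control peptides, were spot-synthesized on cellulose membranes in triplicate. Membranes were incubated with benzonase-treated HEK293T lysate, and bound proteins were identified by LC-MS/MS with LFQ. Enrichment is the log2 fold change of each protein in one spot versus all other spots. Only interactors passing the significance cutoff are listed.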
# CSDE1, O75534 = target: CSDE1, O75534
# Protocol: as §1
# DNAJB11, Q9UBS4 = target: DNAJB11, Q9UBS4
# Protocol: as §1
# EIF3B, P55884 = target: EIF3B, P55884
# Protocol: as §1
# FAM120A, Q9NZB2 = target: FAM120A, Q9NZB2
# Protocol: as §1
# GRB2, P62993 = target: GRB2, P62993
# Protocol: as §1
# HIST1H1E, P10412 = target: HIST1H1E, P10412
# Protocol: as §1
# HP, P00738 = target: HP, P00738
# Protocol: as §1
# HTT, P42858 = target: HTT, P42858
# Protocol: as §1
# MLF2, Q15773 = target: MLF2, Q15773
# Protocol: as §1
# MRPS9, P82933 = target: MRPS9, P82933
# Protocol: as §1
# NAA50, Q9GZZ1 = target: NAA50, Q9GZZ1
# Protocol: as §1
# NDUFS8, O00217 = target: NDUFS8, O00217
# Protocol: as §1
# NOL6, Q9H6R4 = target: NOL6, Q9H6R4
# Protocol: as §1
# ORC4, O43929 = target: ORC4, O43929
# Protocol: as §1
# ORMDL1, Q9P0S3 = target: ORMDL1, Q9P0S3
# Protocol: as §1
# OXSR1, O95747 = target: OXSR1, O95747
# Protocol: as §1
# PYCR3, Q53H96 = target: PYCR3, Q53H96
# Protocol: as §1
# PYM1, Q9BRP8 = target: PYM1, Q9BRP8
# Protocol: as §1
# QRICH1, Q2TAL8 = target: QRICH1, Q2TAL8
# Protocol: as §1
# RNF219, Q5W0B1 = target: RNF219, Q5W0B1
# Protocol: as §1
# SEC16A, O15027 = target: SEC16A, O15027
# Protocol: as §1
# SEC61B, P60468 = target: SEC61B, P60468
# Protocol: as §1
# SH3GL1, Q99961 = target: SH3GL1, Q99961
# Protocol: as §1
# SLC25A1, P53007 = target: SLC25A1, P53007
# Protocol: as §1
# SMARCA5, O60264 = target: SMARCA5, O60264
# Protocol: as §1
# SNX9, Q9Y5X1 = target: SNX9, Q9Y5X1
# Protocol: as §1
# STAT1, P42224 = target: STAT1, P42224
# Protocol: as §1
# TCAF1, Q9Y4C2 = target: TCAF1, Q9Y4C2
# Protocol: as §1
# TMA16, Q96EY4 = target: TMA16, Q96EY4
# Protocol: as §1
# TPD52L2, O43399 = target: TPD52L2, O43399
# Protocol: as §1
# UBA1, P22314 = target: UBA1, P22314
# Protocol: as §1
# UHRF1, Q96T88 = target: UHRF1, Q96T88
# Protocol: as §1
# YTHDC1, Q96MU7 = target: YTHDC1, Q96MU7
# Protocol: as §1
# ZMYM4, Q5VZL5 = target: ZMYM4, Q5VZL5
# Protocol: as §1
# ZW10, O43264 = target: ZW10, O43264
# Protocol: as §1
binder,measurement,setting,value
SSPPGRPTSSCRSSL [RAB12],PRISMA enrichment of interactor (log2),"APLP2, Q06481",6.35
same,PRISMA enrichment of interactor (log2),"CSDE1, O75534",4.89
same,PRISMA enrichment of interactor (log2),"DNAJB11, Q9UBS4",6.86
same,PRISMA enrichment of interactor (log2),"EIF3B, P55884",4.89
same,PRISMA enrichment of interactor (log2),"FAM120A, Q9NZB2",5.89
same,PRISMA enrichment of interactor (log2),"GRB2, P62993",6.34
same,PRISMA enrichment of interactor (log2),"HIST1H1E, P10412",6.7
same,PRISMA enrichment of interactor (log2),"HP, P00738",8.44
same,PRISMA enrichment of interactor (log2),"HTT, P42858",4.53
same,PRISMA enrichment of interactor (log2),"MLF2, Q15773",4.45
same,PRISMA enrichment of interactor (log2),"MRPS9, P82933",6.23
same,PRISMA enrichment of interactor (log2),"NAA50, Q9GZZ1",4.59
same,PRISMA enrichment of interactor (log2),"NDUFS8, O00217",3.87
same,PRISMA enrichment of interactor (log2),"NOL6, Q9H6R4",6.22
same,PRISMA enrichment of interactor (log2),"ORC4, O43929",4.32
same,PRISMA enrichment of interactor (log2),"ORMDL1, Q9P0S3",7.5
same,PRISMA enrichment of interactor (log2),"OXSR1, O95747",8.25
same,PRISMA enrichment of interactor (log2),"PYCR3, Q53H96",8.73
same,PRISMA enrichment of interactor (log2),"PYM1, Q9BRP8",4.07
same,PRISMA enrichment of interactor (log2),"QRICH1, Q2TAL8",4.92
same,PRISMA enrichment of interactor (log2),"RNF219, Q5W0B1",5.39
same,PRISMA enrichment of interactor (log2),"SEC16A, O15027",4.88
same,PRISMA enrichment of interactor (log2),"SEC61B, P60468",5.12
same,PRISMA enrichment of interactor (log2),"SH3GL1, Q99961",6.35
same,PRISMA enrichment of interactor (log2),"SLC25A1, P53007",6
same,PRISMA enrichment of interactor (log2),"SMARCA5, O60264",5.42
same,PRISMA enrichment of interactor (log2),"SNX9, Q9Y5X1",4.44
same,PRISMA enrichment of interactor (log2),"STAT1, P42224",4.36
same,PRISMA enrichment of interactor (log2),"TCAF1, Q9Y4C2",6.21
same,PRISMA enrichment of interactor (log2),"TMA16, Q96EY4",4.53
same,PRISMA enrichment of interactor (log2),"TPD52L2, O43399",5.34
same,PRISMA enrichment of interactor (log2),"UBA1, P22314",5.43
same,PRISMA enrichment of interactor (log2),"UHRF1, Q96T88",9.73
same,PRISMA enrichment of interactor (log2),"YTHDC1, Q96MU7",7.27
same,PRISMA enrichment of interactor (log2),"ZMYM4, Q5VZL5",4.02
same,PRISMA enrichment of interactor (log2),"ZW10, O43264",5.84

# Three records drawn at random from the list so far, as already listed:
binder,measurement,setting,value
SSPPGRPTSSCRSSL [RAB12],PRISMA enrichment of interactor (log2),"SNX9, Q9Y5X1",4.44
same,PRISMA enrichment of interactor (log2),"YTHDC1, Q96MU7",7.27
same,PRISMA enrichment of interactor (log2),"NAA50, Q9GZZ1",4.59
